PubChem BioAssay AID743454 | Peter MacCallum Cancer Centre, 2014
Shown is an unselected part of about 18,000 reagents tested. Of all reagents, 450 (2.5%) got an active call. 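Single biological run; no consistent viability z cut-off exists, so the class columns, not z-scores, define the calls.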 Reagents against one gene are numbered here.

Test: 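Search for knock-downs that restore vorinostat killing in resistant colon cancer cells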 (primary screen)
System: human HCT116-VR colon cancer cells, selected for vorinostat resistance
Reagent: siRNA pool against human genes, 40 nM siRNA pool
Timing: vorinostat for 24 h, read-out about 72 h after transfection
Conditions: vorinostat at 2.5 µM final
Measured: 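Two measures, CellTiter-Fluor viability and luminescent caspase 3/7 activity, each as fold change against same-plate mock wells, mean of duplicates, then screen-wide robust z-score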
Direction: viability robust z-score: higher = more viable cells than screen typical; caspase robust z-score: higher = more caspase 3/7 activity than screen typical
Call rule: 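a knock-down is a hit when classed RV1 or RV2 for lowered viability, or CA1 or CA2 for caspase activation; those lethal without drug were dropped; hits were retested singly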

| target gene | reagent no. | viability hit class | caspase hit class | viability robust z-score | caspase robust z-score | Outcome |
| --- | --- | --- | --- | --- | --- | --- |
| ARHGAP42 | 1 | no change | no change | -0.78 | 0.64 | inactive |
| SLIT1 | 1 | no change | no change | 1.25 | 0.51 | inactive |
| DCTN5 | 1 | no change | no change | -0.2 | -0.8 | inactive |
| FOXI1 | 1 | RV2 (reduced viability) | no change | -3.47 | 3.78 | active |
| TMEM132D | 1 | no change | no change | -0.07 | 0.18 | inactive |
| AUNIP | 1 | no change | no change | 0.77 | -0.14 | inactive |
| SIGLEC8 | 1 | no change | no change | 1.52 | 0.98 | inactive |
| FGL1 | 1 | no change | no change | -0.74 | 0.7 | inactive |
| NUP214 | 1 | no change | no change | -1.99 | 2.53 | inactive |
| PELP1 | 1 | no change | no change | -0.5 | 0.48 | inactive |
| RASGEF1B | 1 | no change | no change | 1.49 | -0.18 | inactive |
| TFAP2A | 1 | no change | no change | -1 | 0.69 | inactive |
| PECAM1 | 1 | no change | no change | 0.08 | 0.26 | inactive |
| PCDHGA7 | 1 | no change | no change | -0.06 | 0.29 | inactive |
| BTK | 1 | no change | no change | 0.02 | 0.16 | inactive |
| VKORC1 | 1 | no change | no change | -0.13 | 0.66 | inactive |
| CLDN23 | 1 | no change | no change | -0.03 | 1.6 | inactive |
| SGPP1 | 1 | no change | no change | 0.68 | -0.11 | inactive |
| PLAC8 | 1 | no change | no change | -0.21 | 0.02 | inactive |
| HIC2 | 1 | no change | no change | 0.94 | 0.52 | inactive |
| SLC39A5 | 1 | no change | no change | -1.17 | 0.76 | inactive |
| TEX44 | 1 | no change | no change | -0.84 | 0.77 | inactive |
| DDIT4L | 1 | no change | no change | -0.44 | 1.77 | inactive |
| PIGF | 1 | no change | no change | -0.01 | -0.57 | inactive |
| LRTM1 | 1 | no change | no change | 0.94 | -0.38 | inactive |
| HBS1L | 1 | no change | no change | 0.48 | -0.48 | inactive |
| CASP8AP2 | 1 | no change | no change | -1.92 | 3.61 | inactive |
| ACSM2A | 1 | no change | no change | -0.37 | -1.02 | inactive |
| C4orf50 | 1 | no change | no change | 0.14 | 0.29 | inactive |
| RCAN1 | 1 | no change | no change | -2.21 | 2.31 | inactive |
| BRPF1 | 1 | no change | no change | 0.28 | -1.09 | inactive |
| KLK10 | 1 | no change | no change | 0.11 | 1.14 | inactive |
| PEX11B | 1 | no change | no change | 1.54 | 0.12 | inactive |
| ACVR1B | 1 | no change | no change | -0.42 | -0.5 | inactive |
| ACBD7 | 1 | no change | no change | 1.57 | -0.6 | inactive |
| TIGD2 | 1 | no change | no change | 1.24 | -0.32 | inactive |
| NXPE1 | 1 | no change | CA2 (caspase activation) | -1.92 | 5.38 | active |
| SCN3A | 1 | no change | no change | -0.52 | -0.72 | inactive |
| MAST1 | 1 | no change | no change | 2.64 | 0.03 | inactive |
| ANO9 | 1 | no change | CA1 (caspase activation) | 1.61 | 5.16 | active |
| RAB20 | 1 | no change | no change | 0.68 | -0.74 | inactive |
| VPS13B | 1 | no change | no change | 0.14 | -0.7 | inactive |
| DCAF15 | 1 | no change | no change | 1.52 | -0.03 | inactive |
| KATNBL1 | 1 | no change | no change | -0.04 | -0.08 | inactive |
| SPAG9 | 1 | no change | no change | 0.14 | -0.12 | inactive |
| PEX5L | 1 | no change | no change | -0.57 | 0.57 | inactive |
| DHH | 1 | no change | no change | 0.22 | 2.13 | inactive |
| ITPRID2 | 1 | no change | no change | 0.52 | -0.26 | inactive |
| SLC4A1 | 1 | no change | no change | 1.27 | -0.07 | inactive |
| HNRNPM | 1 | no change | no change | -1.56 | 2.53 | inactive |
| CD52 | 1 | no change | no change | -1.02 | -0.77 | inactive |
| CDKN2C | 1 | no change | no change | 1.08 | 2.17 | inactive |
| ARHGAP27 | 1 | no change | no change | 1.01 | -0.09 | inactive |
| ARHGAP27 | 2 | no change | no change | 1.68 | 2.36 | inactive |
| ST8SIA4 | 1 | no change | no change | -1.25 | 0.88 | inactive |
| WSB2 | 1 | no change | no change | 0.08 | 0.78 | inactive |
| ZNRF2 | 1 | no change | no change | -0.28 | -0.53 | inactive |

Only “viability robust z-score” (7 entries from above):
DHH = 0.22
ITPRID2 = 0.52
SLC4A1 = 1.27
HNRNPM = -1.56
CD52 = -1.02
CDKN2C = 1.08
ARHGAP27 #1 = 1.01
